{"source": "patent US4235916A", "about": "“2-Methylthio-6-fluoro-9-(1-methyl-4-piperidylidene)-thioxanthene and salts thereof, neuroleptic compositions and method of use” (Kefalas A/S, priority 1977, dated 1980)", "key": {"[1]": {"biological_target": "Muscarinic", "experiment": "Muscarinic affinity binding (3H-PrBCM, whole brain P2 fraction)", "design": "species or system Rats", "conditions": "displacement of specific 3H-PrBCM binding by 50%; rat brain, pH 7.4, 30° C.; read-out: Muscarine affinity (IC50)", "method": "Muscarinic affinity binding\nSodium thiosulphate 10 mM (2.48 g/1000 ml) ^3 H-PrBCM (N-2'-chloroethyl-N-[2\", 3\"-^3 H2 ] propyl-2-aminoethylbenzilate,spec. act. ~28 Ci/mM).\nA rat is killed by a blow on the head and exsanguinated. The whole brain is removed and homogenized in 10 volumes of ice cold 0.32 M sucrose with a hand homogenizer. The homogenate is centrifuged at 600 g for 10 minutes (4° C.) and the pellet discarded. The supernatant is then centrifuged at 25000 g for 55 minutes (4° C.). The pellet fraction (P2) is resuspended in the same volume of 0.32 M sucrose as previously used and stored on ice.\nThe aziridinium ion of ^3 H-propylbenzilyllcholine mustard (^3 H-PrBCM) is prepared by cyclization at a concentration of 130 nM in 15 mM Na-phosphate buffer (pH 7.4) for 50 minutes at 20° C. The reaction is terminated by addition of 100 volumes of ice cold buffer.\nThe incubation is continued for 15 minutes and stopped by addition of 20 ml 100 mM phosphate buffer containing 10 mM sodium thiosulphate. The samples are filtered through Whatman GF/C glass fiber filters and washed with 30 ml ice cold 100 mM phosphate buffer. The filters with synaptosomes are transferred to scintillation vials and the radio-activity measured by liquid scintillation counting after addition of 10 ml Instal-Gel (Packard Inst.). All experiments are performed in triplicate. […]"}, "[2]": {"experiment": "Catalepsy wire mesh, rat, max.", "type": "in vivo, male", "conditions": "catalepsy ED50 (s.c.) / amphetamine antagonism ED50 (i.p.), rats", "method": "Catalepsy wire mesh, rat, max. (ED50 mg/kg s.c.)\nA vertical wire netting (50 cm×49 cm). The meshes (openings) of the netting are square (1 cm×1 cm). The wire diameter is 2 mm.\nThe animals are labeled and used in groups of five. The test substance is injected subcutaneously (s.c.) (5 ml/kg) at 4 dose levels selected from the fixed dose scale.\nThe animals are placed in the middle of the vertical wire netting 60, 120, 180, 240, 300 and 360 minutes after injection of the test compound. The animals are considered cetaleptic when they remain immobile during a period of 15 seconds. This cataleptic reaction is designated +. If the rats are \"atonic\" and passively slides down the wire mesh they are considered not cataleptic. If the animals climb up and down the wire mesh they are nor cataleptic. In both situations the designation - is used."}}}
{"compound": "OCCN1CCN(CCCN2c3ccccc3Sc3ccc(C(F)(F)F)cc32)CC1", "note": "[fluphenazine]", "values": [{"measurement": "IC50", "setting": "[1]", "result": 8, "unit": "µM"}, {"measurement": "Ratio Catalep./Amphetam. antag.", "setting": "[2]", "result": 1.2}]}
